Test results published in PubChem BioAssay AID504834 (National Center for Advancing Translational Sciences (NCATS), 2011).
Out of some 320,000 compounds screened, about 22,000 (6.9%) were called active. The inconclusive results got no clear call from the source; some entries with a clear call stand among them for comparison. The call rests on the fitted dose curve; in most records, active means well fitted inhibition curve with a large enough effect; inconclusive means small, poorly fitted or top-dose-only effect, or another doubt; inactive means no such curve, though single readings can be large or run the other way. A potency beside an inconclusive call is a rough fit, not a confirmed value.

Test: Primary qHTS for delayed death inhibitors of the malarial parasite plastid, 96 hour incubation
Conditions: P. falciparum luciferase reporter growth; series mostly up to 28.7 µM; activity change, negative = inhibition: at the top concentration
Summary of the method: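 Compounds incubated with erythrocytes infected by luciferase-expressing P. falciparum (2% hematocrit, 0.05% parasitemia final) for 96 hours, 37 C in 5% CO2. Growth inhibition scored as decreased luciferase luminescence.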
On the % scale 0 is the no-effect control and ±100 the full control effect; potency means the concentration at half of the fitted maximal effect.

Compound | activity change, negative = inhibition | Potency
O=C(/C=C/c1ccccc1)NCCc1nc2ccccc2[nH]1 | inactive: -14.8% | –
Cc1cc(O)c(C(=O)Nc2cccc(Cl)c2)c(=O)n1C | – | inconclusive: 16.5 µM [inhibitor, single point]
O=C(COc1ccc(C(=O)c2ccccc2)cc1)Nc1cccnc1 | – | inconclusive: 13.1 µM [inhibitor, partial curve, poor fit]
COC(=O)c1ccc(Oc2ccc(S(=O)(=O)N3CCCCC3)cc2N)cc1 | inactive: -9.69% | –
CCCCn1c(N)c(N(CC(C)C)C(=O)C2CCN(S(=O)(=O)c3ccc(C)cc3)CC2)c(=O)[nH]c1=O | – | inconclusive: 18.5 µM [inhibitor, single point]
COc1ccc(CCC(C)NC(=O)CCc2ccccc2)c(OC)c1 (stereo unspecified) | – | inconclusive: 18.5 µM [inhibitor, single point]
O=C(N/N=C/c1ccc(F)c(F)c1)c1cccc(S(=O)(=O)N2CCCCC2)c1 | – | inconclusive: 18.5 µM [inhibitor, single point]
O=C(NCCc1ccccn1)C(F)(F)C(F)(F)C(F)(F)C(F)(F)C(F)(F)C(F)(F)C(F)(F)C(F)F | – | inconclusive: 18.5 µM [inhibitor, single point]
Cc1cccc(NC(=O)c2sc(Cl)nc2C)c1C | – | inconclusive: 18.5 µM [inhibitor, single point]
Cc1cc2c(c(=O)o1)C1O[C@](CCCCN3C(=O)c4ccccc4C3=O)(Cc3cc(C#N)ccc31)O2 | – | inconclusive: 0.19 µM [inhibitor, full curve, poor fit]
CCOC(=O)CSC1=Nc2ccccc2C2=NC(CC(=O)NCc3ccccc3)C(=O)N12 (stereo unspecified) | inactive: -5.59% | –
Cc1ccc(NC(=O)NC2CC(=O)N(c3ccc4c(c3)OCCO4)C2)c(C)c1 (stereo unspecified) | inactive: -13.5% | –
COc1ccc(/C=N/NC(=O)c2cc(-c3ccccc3)nc3ccccc23)cc1O | – | inconclusive: 18.5 µM [inhibitor, single point]
CCn1c(SCc2ccc(C)cc2)nnc1-c1nn(-c2ccccc2)ccc1=O | – | active: 7.38 µM
S=C(NCC1CCCO1)Nc1cccc2ccccc12 (stereo unspecified) | – | active: 1.04 µM
CCOC(=O)c1c(C)[nH]c(C)c1C(=O)COC(=O)[C@@H](NC(=O)c1ccccc1OCC)C(C)C | – | inconclusive: 18.5 µM [inhibitor, partial curve, poor fit]
CCOC(=O)CN(C(=O)CSc1nnc(COc2ccc(OC)cc2)n1C)c1ccccc1 | – | active: 11.7 µM
CCOc1ccc(CCNC(=O)c2ccc(CS(=O)Cc3ccc(Cl)cc3)o2)cc1 (stereo unspecified) | – | inconclusive: 18.5 µM [inhibitor, single point]
Cc1cc(C(=O)NNC(=S)NC(C)c2ccccc2)c2ccccc2n1 (stereo unspecified) | – | active: 10.4 µM
COCCNc1nc(-c2cc(C)c(C)cc2C)cs1 | – | inconclusive: 14.7 µM [inhibitor, partial curve, poor fit]
CCCCNC(=O)N1CCN(c2ncccn2)CC1 | inactive: 4.04% | –
CC(C)c1nc(SCC(=O)N2CCCC2)c2ccccc2n1 | inactive: 13.1% | –
CC(=O)C1=C(O)C(=O)N(Cc2ccccc2)C1c1ccc(N(C)C)cc1 (stereo unspecified) | – | inconclusive: 16.5 µM [inhibitor, single point]

Compound | activity change, negative = inhibition | Potency
Cc1ccc(Cc2nnc(SCC(=O)Nc3ccc(C)cc3C)[nH]c2=O)cc1 | inactive: 31.1% | –
N#CCc1nn(-c2ccccc2)c(N)c1C#N | – | inconclusive: 13.1 µM [inhibitor, single point]
COc1ccc(SC[C@H](Cc2ccccc2)N2CC[C@@H](C)CCC2=O)cc1 | – | inconclusive: 11.7 µM [inhibitor, single point]
N#Cc1nc(COc2ccc(Br)cc2)oc1N1CCN(Cc2ccccc2)CC1 | inactive: 25.6% | –
O=C(Nc1ccccc1F)N(Cc1ccc(F)cc1)Cc1nc2ccccc2c(=O)[nH]1 | – | inconclusive: 0.828 µM [inhibitor, full curve, poor fit]
Clc1ccc(Cc2nn3c(Cn4nnc5ccccc54)nnc3s2)cc1 | – | inconclusive: 18.5 µM [inhibitor, single point]
Cc1ccc2cccc(OCC(=O)N3CC(C)CC(C)C3)c2n1 (stereo unspecified) | inactive: 21.4% | –
O=C(CN1C(=O)S/C(=C\c2ccccc2)C1=O)NNC(=O)c1ccccc1O | inactive: 13.3% | –
Cc1cccc2cc3c(N)c(C(=O)N4CCCc5ccccc54)sc3nc12 | – | active: 11.7 µM
O=C(COC(=O)c1cc(Br)c(Br)s1)NCCC1=CCCCC1 | inactive: 40.8% | –
Cc1ccccc1NC(=O)Nc1cccs1 | – | inconclusive: 18.5 µM [inhibitor, single point]
CC(=O)C1=C(C)OC(N)=C(C#N)C1c1cc2cc(C)c(C)cc2nc1Cl (stereo unspecified) | inactive: 50.2% | –
Cc1cccc(CN2CCN(C(=O)c3cccc4ccccc34)CC2)c1 | – | inconclusive: 8.28 µM [inhibitor, partial curve]
O=C(CNC(=S)N(CCCN1CCOCC1)Cc1cccs1)NC1CCCC1 | – | inconclusive: 11.7 µM [inhibitor, partial curve, poor fit]
N#C/C(=C\c1ccc(C(=O)O)cc1)c1ccccn1 | inactive: 22.1% | –
Cc1cc(C)c2nc(C(F)(F)F)nc(NCCCN3CCOCC3)c2c1 | – | inconclusive: 16.5 µM [inhibitor, partial curve, poor fit]
CCOC(=O)c1n[nH]n(-c2cc(Cl)cc(Cl)c2)c1=O | inactive: 5.86% | –
CCOC(=O)c1c(NC(=O)C2CCN(S(=O)(=O)c3ccc(Cl)cc3)CC2)sc2c1CCCC2 | – | inconclusive: 4.15 µM [inhibitor, full curve, poor fit]
COc1ccccc1N1CCN(C(=O)c2cc3ccccc3[nH]2)CC1 | – | inconclusive: 13.1 µM [inhibitor, single point]
C[C@@H](NC(=O)c1nc[nH]c1C(=O)OCc1ccccc1)c1ccccc1 | – | inconclusive: 9.28 µM [inhibitor, single point]
O=C(COC(=O)CC(c1ccccc1)c1ccccc1)Nc1cccc(F)c1 | inactive: 6.94% | –
Cc1ccc(-n2ncc3c(=O)[nH]c(SCC(=O)N4CCCC4)nc32)cc1C | – | inconclusive: 10.4 µM [inhibitor, single point]
C/C(=N\NC(=O)C1CCCN(S(=O)(=O)c2ccccc2)C1)c1ccncc1 (stereo unspecified) | – | inconclusive: 18.5 µM [inhibitor, single point]
